According to publication PMC4350284:
These are yes or no findings as the source states them, for the method shown. For some of these results: In cells and extracts the contact can be indirect. Some results given as binding are weak or reduced against the parent protein; the word gives no strength. One block for each substance: values may come before it.

Amino acid sequences for entries named in this document (tags omitted). A change or cut given only in a name is not applied to a line headed by its entry. Residues count along the entry.
UniProt P42230: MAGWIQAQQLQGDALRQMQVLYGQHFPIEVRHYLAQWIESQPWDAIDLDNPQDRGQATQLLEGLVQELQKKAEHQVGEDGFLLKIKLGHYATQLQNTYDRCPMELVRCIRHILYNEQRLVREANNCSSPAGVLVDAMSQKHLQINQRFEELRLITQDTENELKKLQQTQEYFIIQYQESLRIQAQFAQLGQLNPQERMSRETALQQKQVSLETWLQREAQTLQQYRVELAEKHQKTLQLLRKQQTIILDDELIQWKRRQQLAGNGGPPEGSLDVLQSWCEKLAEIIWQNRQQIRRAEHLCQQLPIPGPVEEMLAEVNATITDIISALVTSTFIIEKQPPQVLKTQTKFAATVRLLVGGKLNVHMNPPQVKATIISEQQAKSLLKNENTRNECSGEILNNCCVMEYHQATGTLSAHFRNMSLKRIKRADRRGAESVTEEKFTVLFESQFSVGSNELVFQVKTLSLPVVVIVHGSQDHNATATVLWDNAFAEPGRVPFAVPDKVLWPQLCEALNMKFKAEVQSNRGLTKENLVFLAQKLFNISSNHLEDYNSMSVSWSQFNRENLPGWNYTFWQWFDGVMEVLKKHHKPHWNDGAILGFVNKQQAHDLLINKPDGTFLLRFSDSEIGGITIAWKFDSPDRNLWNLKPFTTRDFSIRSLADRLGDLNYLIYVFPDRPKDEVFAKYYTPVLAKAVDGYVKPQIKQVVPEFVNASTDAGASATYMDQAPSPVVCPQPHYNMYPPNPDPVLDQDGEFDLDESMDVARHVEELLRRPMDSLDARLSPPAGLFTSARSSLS
UniProt P08631, residues 22-526: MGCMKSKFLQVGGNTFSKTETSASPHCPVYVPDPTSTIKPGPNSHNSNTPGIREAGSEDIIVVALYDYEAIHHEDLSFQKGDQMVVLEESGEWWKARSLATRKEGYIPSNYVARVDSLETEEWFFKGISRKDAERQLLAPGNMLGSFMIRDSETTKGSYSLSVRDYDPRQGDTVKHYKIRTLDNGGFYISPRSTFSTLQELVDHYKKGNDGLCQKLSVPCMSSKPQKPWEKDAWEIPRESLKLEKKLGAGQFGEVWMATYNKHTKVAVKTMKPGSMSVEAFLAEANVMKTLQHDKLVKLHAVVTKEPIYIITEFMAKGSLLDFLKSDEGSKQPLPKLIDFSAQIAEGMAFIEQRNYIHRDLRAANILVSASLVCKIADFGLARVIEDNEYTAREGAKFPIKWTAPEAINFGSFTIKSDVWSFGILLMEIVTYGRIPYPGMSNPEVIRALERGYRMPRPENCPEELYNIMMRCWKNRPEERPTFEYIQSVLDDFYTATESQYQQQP

Tests used:
[1] = biological target: STAT5A^R618Q-eYFP (murine) (UniProt P42230); test: co-IP; HeLa T-REx FRT cells co-transfected with STAT5A-eYFP constructs and vSrc-dsRed or Hck-dsRed constructs, 24 h; RIPA lysate; STAT5A-eYFP precipitated with anti-GFP on Protein G Sepharose over night at 4°C; blot for Src or Hck
[2] = biological target: T1, non-phosphorylated Src-peptide (activation loop, tyrosine 416); test: pull-down; 25 nmol biotinylated peptide on NeutrAvidin agarose incubated with 1 mg cleared lysate of HeLa T-REx FRT cells over night at 4°C; storage buffer 150 mM NaCl, 50 mM Tris-HCl pH 7.5, 0.5% Nonidet P-40; blot with anti-GFP; only the target purified
T1 sequence (peptide, biotinylated): RLIEDNEYTARQGAK

[3] = biological target: T2, phosphorylated Src-peptide (activation loop, phosphotyrosine 416); test: as above
T2 sequence (peptide, phosphotyrosine 416 (the Y of the peptide); biotinylated): RLIEDNEYTARQGAK

[4] = biological target: STAT5A^S710F-eYFP (murine) (UniProt P42230); test: native gel or EMSA; blue native PAGE (4-16% Bis-Tris, over night at 4°C) of native lysates (2% digitonin) of HeLa T-REx HA-EpoR cells (with Epo) or HeLa T-REx vSrc-dsRed cells (with doxycycline); dimers and monomers detected by eYFP fluorescence

binding [1]: binds
Substance: Hck-dsRed (from UniProt P08631-2 1-505) (enzyme)

binding [2]: no binding
binding [3]: no binding
Substance: STAT5A^R618Q-eYFP (from UniProt P42230 1-793)

binding [4]: binds
Substance: STAT5A^S710F-eYFP (from UniProt P42230 1-793)
